The values that follow come from patent US20060257938A1, “Method of screening for drugs that block ligand binding to a lipid binding protein” (priority 2005, published 2006).

This series in a line: Baseline fluorescence ratio Ro of probe in absence of analyte.
The mark [1] stands for this setting: average baseline fluorescence ratio Ro of the clone probe, substitutions with respect to SEQ ID NO: 2.
Setting [2] is: baseline fluorescence ratio of probe.
The mark [3] stands for this setting: baseline fluorescence ratio of probe, no fatty acid.

B1: 73E, 72A (protein, listed as Rattus norvegicus)
chain: AFDGTWKVDRNENYEKFMEKMGINVVKRKLGAHDNLKLTITQEGNKFTVKESSNFRNIDVVFELGVDFAYSAEDGTELTGTWTMEGNKLVGKFKRVDNGKELIAVREISGNELIQTYTYEGVEAKRIFKKE
modifications: PEPTIDE (1)...(131) wild-type rat intestinal fatty acid binding protein
B1: the AvgOfRo under setting [1] is 0.23.

B2: 74A, 72A (protein, listed as Rattus norvegicus)
chain: AFDGTWKVDRNENYEKFMEKMGINVVKRKLGAHDNLKLTITQEGNKFTVKESSNFRNIDVVFELGVDFAYSAAAGTELTGTWTMEGNKLVGKFKRVDNGKELIAVREISGNELIQTYTYEGVEAKRIFKKE
modifications: PEPTIDE (1)...(131) wild-type rat intestinal fatty acid binding protein
Regarding B2, the AvgOfRo under setting [1] is on record as 0.20.

B3: 73G, 72A (protein, listed as Rattus norvegicus)
chain: AFDGTWKVDRNENYEKFMEKMGINVVKRKLGAHDNLKLTITQEGNKFTVKESSNFRNIDVVFELGVDFAYSAGDGTELTGTWTMEGNKLVGKFKRVDNGKELIAVREISGNELIQTYTYEGVEAKRIFKKE
modifications: PEPTIDE (1)...(131) wild-type rat intestinal fatty acid binding protein
Regarding B3, the AvgOfRo under setting [1] was 0.22.

B4: 74F, 72A (protein, listed as Rattus norvegicus)
chain: AFDGTWKVDRNENYEKFMEKMGINVVKRKLGAHDNLKLTITQEGNKFTVKESSNFRNIDVVFELGVDFAYSAAFGTELTGTWTMEGNKLVGKFKRVDNGKELIAVREISGNELIQTYTYEGVEAKRIFKKE
modifications: PEPTIDE (1)...(131) wild-type rat intestinal fatty acid binding protein
Take B4: the AvgOfRo under setting [1] amounted to 0.25. Further, the Ro by setting is: under setting [2], 0.28; under setting [3], 0.28.

B5: 74N, 72A (protein, listed as Rattus norvegicus)
chain: AFDGTWKVDRNENYEKFMEKMGINVVKRKLGAHDNLKLTITQEGNKFTVKESSNFRNIDVVFELGVDFAYSAANGTELTGTWTMEGNKLVGKFKRVDNGKELIAVREISGNELIQTYTYEGVEAKRIFKKE
modifications: PEPTIDE (1)...(131) wild-type rat intestinal fatty acid binding protein
Regarding B5, the AvgOfRo under setting [1] was 0.16.

B6: 73N, 72A (protein, listed as Rattus norvegicus)
chain: AFDGTWKVDRNENYEKFMEKMGINVVKRKLGAHDNLKLTITQEGNKFTVKESSNFRNIDVVFELGVDFAYSANDGTELTGTWTMEGNKLVGKFKRVDNGKELIAVREISGNELIQTYTYEGVEAKRIFKKE
modifications: PEPTIDE (1)...(131) wild-type rat intestinal fatty acid binding protein
B6: under setting [1], the AvgOfRo stood at 0.21.

B7: 73H, 72A (protein, listed as Rattus norvegicus)
chain: AFDGTWKVDRNENYEKFMEKMGINVVKRKLGAHDNLKLTITQEGNKFTVKESSNFRNIDVVFELGVDFAYSAHDGTELTGTWTMEGNKLVGKFKRVDNGKELIAVREISGNELIQTYTYEGVEAKRIFKKE
modifications: PEPTIDE (1)...(131) wild-type rat intestinal fatty acid binding protein
For B7, the AvgOfRo under setting [1] turned out to be 0.11.

B8: 73R, 72A (protein, listed as Rattus norvegicus)
chain: AFDGTWKVDRNENYEKFMEKMGINVVKRKLGAHDNLKLTITQEGNKFTVKESSNFRNIDVVFELGVDFAYSARDGTELTGTWTMEGNKLVGKFKRVDNGKELIAVREISGNELIQTYTYEGVEAKRIFKKE
modifications: PEPTIDE (1)...(131) wild-type rat intestinal fatty acid binding protein
Take B8: the AvgOfRo under setting [1] is 0.27.

B9: 74C, 72A (protein, listed as Rattus norvegicus)
chain: AFDGTWKVDRNENYEKFMEKMGINVVKRKLGAHDNLKLTITQEGNKFTVKESSNFRNIDVVFELGVDFAYSAACGTELTGTWTMEGNKLVGKFKRVDNGKELIAVREISGNELIQTYTYEGVEAKRIFKKE
modifications: PEPTIDE (1)...(131) wild-type rat intestinal fatty acid binding protein
In the case of B9, the AvgOfRo under setting [1] turned out to be 0.45.

B10: 73F, 72A (protein, listed as Rattus norvegicus)
chain: AFDGTWKVDRNENYEKFMEKMGINVVKRKLGAHDNLKLTITQEGNKFTVKESSNFRNIDVVFELGVDFAYSAFDGTELTGTWTMEGNKLVGKFKRVDNGKELIAVREISGNELIQTYTYEGVEAKRIFKKE
modifications: PEPTIDE (1)...(131) wild-type rat intestinal fatty acid binding protein
Consider B10, for which the AvgOfRo under setting [1] came to 0.33. The Ro under setting [3] amounted to 0.330.

B11: 73Q, 72A (protein, listed as Rattus norvegicus)
chain: AFDGTWKVDRNENYEKFMEKMGINVVKRKLGAHDNLKLTITQEGNKFTVKESSNFRNIDVVFELGVDFAYSAQDGTELTGTWTMEGNKLVGKFKRVDNGKELIAVREISGNELIQTYTYEGVEAKRIFKKE
modifications: PEPTIDE (1)...(131) wild-type rat intestinal fatty acid binding protein
Take B11: the AvgOfRo under setting [1] is 0.27.

B12: 74T, 72A (protein, listed as Rattus norvegicus)
chain: AFDGTWKVDRNENYEKFMEKMGINVVKRKLGAHDNLKLTITQEGNKFTVKESSNFRNIDVVFELGVDFAYSAATGTELTGTWTMEGNKLVGKFKRVDNGKELIAVREISGNELIQTYTYEGVEAKRIFKKE
modifications: PEPTIDE (1)...(131) wild-type rat intestinal fatty acid binding protein
Take B12: the AvgOfRo under setting [1] amounted to 0.27.

B13: 74Q, 72A (protein, listed as Rattus norvegicus)
chain: AFDGTWKVDRNENYEKFMEKMGINVVKRKLGAHDNLKLTITQEGNKFTVKESSNFRNIDVVFELGVDFAYSAAQGTELTGTWTMEGNKLVGKFKRVDNGKELIAVREISGNELIQTYTYEGVEAKRIFKKE
modifications: PEPTIDE (1)...(131) wild-type rat intestinal fatty acid binding protein
Consider B13, for which the AvgOfRo under setting [1] turned out to be 0.29.

B14: 73V, 72A (protein, listed as Rattus norvegicus)
chain: AFDGTWKVDRNENYEKFMEKMGINVVKRKLGAHDNLKLTITQEGNKFTVKESSNFRNIDVVFELGVDFAYSAVDGTELTGTWTMEGNKLVGKFKRVDNGKELIAVREISGNELIQTYTYEGVEAKRIFKKE
modifications: PEPTIDE (1)...(131) wild-type rat intestinal fatty acid binding protein
For B14, the AvgOfRo under setting [1] stood at 0.30. In addition, the Ro is 0.300 under setting [2] and 0.300 under setting [3].

B15: 73K, 72A (protein, listed as Rattus norvegicus)
chain: AFDGTWKVDRNENYEKFMEKMGINVVKRKLGAHDNLKLTITQEGNKFTVKESSNFRNIDVVFELGVDFAYSAKDGTELTGTWTMEGNKLVGKFKRVDNGKELIAVREISGNELIQTYTYEGVEAKRIFKKE
modifications: PEPTIDE (1)...(131) wild-type rat intestinal fatty acid binding protein
Consider B15, for which the AvgOfRo under setting [1] is listed as 0.24.

B16: 73P, 72A (protein, listed as Rattus norvegicus)
chain: AFDGTWKVDRNENYEKFMEKMGINVVKRKLGAHDNLKLTITQEGNKFTVKESSNFRNIDVVFELGVDFAYSAPDGTELTGTWTMEGNKLVGKFKRVDNGKELIAVREISGNELIQTYTYEGVEAKRIFKKE
modifications: PEPTIDE (1)...(131) wild-type rat intestinal fatty acid binding protein
Take B16: the AvgOfRo under setting [1] was 0.15.

B17: 74L, 72A (protein, listed as Rattus norvegicus)
chain: AFDGTWKVDRNENYEKFMEKMGINVVKRKLGAHDNLKLTITQEGNKFTVKESSNFRNIDVVFELGVDFAYSAALGTELTGTWTMEGNKLVGKFKRVDNGKELIAVREISGNELIQTYTYEGVEAKRIFKKE
modifications: PEPTIDE (1)...(131) wild-type rat intestinal fatty acid binding protein
For B17, the AvgOfRo under setting [1] turned out to be 0.17. Moreover, the Ro under setting [3] came to 0.172.

B18: 73W, 72A (protein, listed as Rattus norvegicus)
chain: AFDGTWKVDRNENYEKFMEKMGINVVKRKLGAHDNLKLTITQEGNKFTVKESSNFRNIDVVFELGVDFAYSAWDGTELTGTWTMEGNKLVGKFKRVDNGKELIAVREISGNELIQTYTYEGVEAKRIFKKE
modifications: PEPTIDE (1)...(131) wild-type rat intestinal fatty acid binding protein
On to B18, for which the AvgOfRo under setting [1] was 0.39.

B19: 73S, 72A (protein, listed as Rattus norvegicus)
chain: AFDGTWKVDRNENYEKFMEKMGINVVKRKLGAHDNLKLTITQEGNKFTVKESSNFRNIDVVFELGVDFAYSASDGTELTGTWTMEGNKLVGKFKRVDNGKELIAVREISGNELIQTYTYEGVEAKRIFKKE
modifications: PEPTIDE (1)...(131) wild-type rat intestinal fatty acid binding protein
Take B19: the AvgOfRo under setting [1] is recorded as 0.20.

B20: 73T, 72A (protein, listed as Rattus norvegicus)
chain: AFDGTWKVDRNENYEKFMEKMGINVVKRKLGAHDNLKLTITQEGNKFTVKESSNFRNIDVVFELGVDFAYSATDGTELTGTWTMEGNKLVGKFKRVDNGKELIAVREISGNELIQTYTYEGVEAKRIFKKE
modifications: PEPTIDE (1)...(131) wild-type rat intestinal fatty acid binding protein
For B20, under setting [1], the AvgOfRo came out at 0.16. For the same molecule, the Ro under setting [2] was 0.157.

B21: 73L, 72A (protein, listed as Rattus norvegicus)
chain: AFDGTWKVDRNENYEKFMEKMGINVVKRKLGAHDNLKLTITQEGNKFTVKESSNFRNIDVVFELGVDFAYSALDGTELTGTWTMEGNKLVGKFKRVDNGKELIAVREISGNELIQTYTYEGVEAKRIFKKE
modifications: PEPTIDE (1)...(131) wild-type rat intestinal fatty acid binding protein
Take B21: the AvgOfRo under setting [1] worked out at 0.29. Also, under setting [2], the Ro is 0.294.

B22: 104F3, 72A (protein, listed as Rattus norvegicus)
chain: AFDGTWKVDRNENYEKFMEKMGINVVKRKLGAHDNLKLTITQEGNKFTVKESSNFRNIDVVFELGVDFAYSAADGTELTGTWTMEGNKLVGKFKRVDNGKELIFVREISGNELIQTYTYEGVEAKRIFKKE
modifications: PEPTIDE (1)...(131) wild-type rat intestinal fatty acid binding protein
For the molecule B22, under setting [3], the AvgOfRo is reported as 0.34.
